These are yes or no findings as the source states them, for the method shown. In cells and extracts the contact can be indirect. Some binding calls cover weakened binding; strength is not graded here.
Target: T1, rh-BMP4 protein (R&D Systems, Inc., USA) (human, UniProt P12644 293-408)
T1 construct: Bought protein; also called BMP protein
T1 sequence (looked up): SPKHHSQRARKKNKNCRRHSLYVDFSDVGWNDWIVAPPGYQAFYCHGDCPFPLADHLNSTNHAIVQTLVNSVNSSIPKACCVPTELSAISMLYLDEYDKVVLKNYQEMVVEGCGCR
Assay: streptavidin column pull-down of rh-BMP4 on the biotinylated peptide; eluate read by SDS-PAGE and anti-BMP4 western blot

- binding: binds
Binder: ELIEHGGGRPAD (N-terminus modified with biotin) [biotinylated peptide (peptide of SEQ ID NO: 1 with the N-terminus modified with biotin)]
